Test results published in patent US8835147B2, “Cellular production of glucaric acid through recombinant expression of uronate dehydrogenase and myo-inositol oxygenase” (Massachusetts Institute of Technology, priority 2008, dated 2014).

Experiment: Effect of pH on activity of purified Udhs
Format: biochemical
Settings: purified Udh, FIG. 10a

B1: P. putida enzyme: 6×-His tagged uronate dehydrogenase from P. putida KT2440 (SEQ ID NO:26), expressed in E. coli and purified (protein, listed as Pseudomonas putida)
chain: MTTTPFNRLLLTGAAGGLGKVLRERLKGYAEVLRLSDISPMAPAAGPHEEVITCDLADKAAVHTLVEGVDAIIHFGGVSTEHAFEEILGPNICGVFHVYEAARKHGVKRIIFASSNHTIGFYRQDERIDAHAPRRPDSYYGLSKCYGEDVASFYFDRYGIETVSIRIGSSFPQPQNLRMLCTWLSYDDLVQLIERGLFTPGVGHTIVYGASDNRTVWWDNRHAAHLGYVPKDSSETFRAAVEAQPAPAADDPSMVYQGGAFAVAGPFN
modifications: 6xHis tag
pH optimum: ~7.0
